Cleaved PARP after 72 h of treatment

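Human melanoma cells were exposed to two drugs together for 72 h in 1,536-well plates and read by automated microscopy after fixing and staining. Values are the share of nuclei positive for cleaved PARP as a percentage of the same share in the DMSO control: 100 is the control level, higher means more apoptosis. Every drug was used at one fixed concentration, the higher of two screened. These are primary screening values without error estimates. The marker varies much from line to line, for technical or biological reasons.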 Only some of the drugs and lines screened are listed, without regard to their results. A dash means that no value is listed here.

Compounds and concentrations:
CX-4945: O=C(O)c1ccc2c(c1)nc(Nc1cccc(Cl)c1)c1ccncc12 at 2 µM
indole-3-carbinol: OCc1c[nH]c2ccccc12 at 4 µM
embelin: CCCCCCCCCCCC1=C(O)C(=O)C=C(O)C1=O at 6 µM
CP-690550: C[C@@H]1CCN(C(=O)CC#N)C[C@@H]1N(C)c1ncnc2[nH]ccc12 at 5 µM
crizotinib: C[C@@H](Oc1cc(-c2cnn(C3CCNCC3)c2)cnc1N)c1c(Cl)ccc(F)c1Cl at 1 µM
decitabine: Nc1ncn([C@H]2C[C@H](O)[C@@H](CO)O2)c(=O)n1 at 0.5 µM
temozolomide: Cn1nnc2c(C(N)=O)ncn2c1=O at 10 µM
LFM-A13: C/C(O)=C(\C#N)C(=O)Nc1cc(Br)ccc1Br at 10 µM
docetaxel: CC(=O)O[C@@]12CO[C@@H]1C[C@H](O)[C@@]1(C)C(=O)[C@H](O)C3=C(C)[C@@H](OC(=O)[C@H](O)[C@@H](NC(=O)OC(C)(C)C)c4ccccc4)C[C@@](O)([C@@H](OC(=O)c4ccccc4)[C@H]21)C3(C)C at 0.0005 µM
JZL184: O=C(Oc1ccc([N+](=O)[O-])cc1)N1CCC(C(O)(c2ccc3c(c2)OCO3)c2ccc3c(c2)OCO3)CC1 at 5 µM
vismodegib: CS(=O)(=O)c1ccc(C(=O)Nc2ccc(Cl)c(-c3ccccn3)c2)c(Cl)c1 at 5 µM
ABT-263: CC1(C)CCC(c2ccc(Cl)cc2)=C(CN2CCN(c3ccc(C(=O)NS(=O)(=O)c4ccc(N[C@H](CCN5CCOCC5)CSc5ccccc5)c(S(=O)(=O)C(F)(F)F)c4)cc3)CC2)C1 at 2 µM
vatalanib: Clc1ccc(Nc2nnc(Cc3ccncc3)c3ccccc23)cc1 at 10 µM

Drugs	COLO 829	LB2518-MEL	WM3619
CP-690550 + docetaxel	483	108	158
vatalanib + ABT-263	260	1100	178
vatalanib + CP-690550	38.3	57.3	183
crizotinib + ABT-263	143	748	249
temozolomide + indole-3-carbinol	139	161	89.7
CX-4945 + embelin	173	203	116
CP-690550 + CX-4945	144	37.5	117
indole-3-carbinol + decitabine	215	118	82.6
CP-690550 + LFM-A13	113	83.3	110
temozolomide + vatalanib	103	62.9	138
docetaxel + embelin	373	527	135
embelin + indole-3-carbinol	332	1140	99.4
decitabine + JZL184	266	116	108
vatalanib + LFM-A13	150	96.5	129
CX-4945 + decitabine	279	83.9	184
vismodegib + docetaxel	266	549	162
vatalanib + docetaxel	333	534	178
docetaxel + crizotinib	300	573	173
temozolomide + ABT-263	92.6	-	120
crizotinib + CP-690550	84.4	118	98.2
CX-4945 + vismodegib	373	32.1	115
CP-690550 + ABT-263	134	47.1	154

For reference, 2 entries once more:

Drugs,COLO 829,LB2518-MEL,WM3619
crizotinib + ABT-263,143,748,249
CX-4945 + decitabine,279,83.9,184

From a melanoma drug combination screen (doi:10.1371/journal.pone.0140310); values rounded.